The text below walks through data of publication PMC7862700.

The chains behind the UniProt entries cited, without tags or fusion partners. Where a name states a change or a piece, a line headed by the entry shows the natural chain unless it says otherwise.
UniProt P32519: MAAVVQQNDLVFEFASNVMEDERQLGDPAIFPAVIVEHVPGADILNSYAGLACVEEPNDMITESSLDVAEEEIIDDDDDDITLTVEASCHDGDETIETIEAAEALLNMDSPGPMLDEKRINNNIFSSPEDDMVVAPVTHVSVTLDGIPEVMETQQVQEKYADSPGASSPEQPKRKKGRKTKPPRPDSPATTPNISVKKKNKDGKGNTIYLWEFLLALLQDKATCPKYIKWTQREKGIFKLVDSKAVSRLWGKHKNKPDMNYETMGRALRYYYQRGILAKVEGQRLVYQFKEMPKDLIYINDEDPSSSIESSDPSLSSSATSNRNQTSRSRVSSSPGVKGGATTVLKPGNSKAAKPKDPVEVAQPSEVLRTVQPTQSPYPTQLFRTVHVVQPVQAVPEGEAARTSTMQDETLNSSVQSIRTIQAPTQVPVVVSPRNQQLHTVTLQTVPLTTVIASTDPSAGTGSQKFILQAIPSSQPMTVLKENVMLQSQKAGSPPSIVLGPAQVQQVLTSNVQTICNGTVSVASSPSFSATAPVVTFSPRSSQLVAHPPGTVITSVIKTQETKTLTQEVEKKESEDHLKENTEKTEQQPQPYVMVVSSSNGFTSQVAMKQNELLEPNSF
UniProt P50549: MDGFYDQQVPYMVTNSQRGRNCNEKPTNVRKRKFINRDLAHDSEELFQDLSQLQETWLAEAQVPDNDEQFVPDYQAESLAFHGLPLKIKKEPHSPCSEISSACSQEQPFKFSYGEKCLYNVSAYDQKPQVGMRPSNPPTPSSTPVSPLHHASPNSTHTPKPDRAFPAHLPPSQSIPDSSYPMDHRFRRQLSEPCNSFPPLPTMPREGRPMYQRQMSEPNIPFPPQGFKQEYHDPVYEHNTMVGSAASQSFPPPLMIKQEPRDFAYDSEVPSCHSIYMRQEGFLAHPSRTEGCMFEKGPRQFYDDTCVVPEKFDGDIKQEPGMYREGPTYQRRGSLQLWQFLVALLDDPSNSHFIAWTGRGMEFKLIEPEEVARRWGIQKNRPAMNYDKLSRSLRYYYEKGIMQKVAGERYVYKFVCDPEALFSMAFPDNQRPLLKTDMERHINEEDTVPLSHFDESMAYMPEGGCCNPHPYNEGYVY

Only a part is listed here, and it is no random draw. For part of these data: At the low end of the ranking the order means little. The list shows a part of the results. For part of these data: The exact form of the protein is not confirmed.

Assay in all cases: DAPPL (digital affinity profiling via proximity ligation, sequencing)
What all share (details): 10 mM Tris-HCl pH 7.5, 50 mM NaCl, 1 mM DTT, 4% glycerol, room temperature, 30 min; GST-TFs on glutathione beads, 16-mer random dsDNA library, 0.1% …; high values mean tight binding; double strand, one strand shown; scale: fold enrichment (6-mer frequency, TF over GST control)

The target of one assay is T1, ERG (UniProt P11308).
T1 sequence: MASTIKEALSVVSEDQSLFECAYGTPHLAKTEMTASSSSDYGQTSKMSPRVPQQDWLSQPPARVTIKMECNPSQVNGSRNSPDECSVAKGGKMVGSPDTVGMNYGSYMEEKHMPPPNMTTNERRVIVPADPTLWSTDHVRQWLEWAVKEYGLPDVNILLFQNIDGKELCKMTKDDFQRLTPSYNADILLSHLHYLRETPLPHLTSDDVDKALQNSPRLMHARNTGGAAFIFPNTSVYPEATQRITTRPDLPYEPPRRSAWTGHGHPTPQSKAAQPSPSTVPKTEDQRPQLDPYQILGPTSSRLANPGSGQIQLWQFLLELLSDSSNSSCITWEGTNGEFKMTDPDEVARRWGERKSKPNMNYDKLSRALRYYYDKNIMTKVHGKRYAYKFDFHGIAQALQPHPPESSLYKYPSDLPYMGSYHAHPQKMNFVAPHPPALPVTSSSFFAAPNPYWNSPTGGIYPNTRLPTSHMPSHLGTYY

In another assay the target is ELF1 (UniProt P32519).
Another assay concerns the target T2, ELK4 (UniProt P28324-2).
T2 sequence: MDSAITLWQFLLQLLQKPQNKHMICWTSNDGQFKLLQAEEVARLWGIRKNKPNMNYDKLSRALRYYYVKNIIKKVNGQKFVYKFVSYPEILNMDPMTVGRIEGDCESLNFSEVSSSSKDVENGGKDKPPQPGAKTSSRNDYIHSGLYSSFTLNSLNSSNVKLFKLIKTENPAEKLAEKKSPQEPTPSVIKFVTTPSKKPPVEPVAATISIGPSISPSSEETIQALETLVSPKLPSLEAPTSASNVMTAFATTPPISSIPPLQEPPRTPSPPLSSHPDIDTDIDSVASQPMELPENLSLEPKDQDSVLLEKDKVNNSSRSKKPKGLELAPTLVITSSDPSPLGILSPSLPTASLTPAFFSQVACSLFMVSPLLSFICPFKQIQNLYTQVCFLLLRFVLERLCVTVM

The target of the next assay is T3, ETV4 (UniProt P43268).
T3 sequence: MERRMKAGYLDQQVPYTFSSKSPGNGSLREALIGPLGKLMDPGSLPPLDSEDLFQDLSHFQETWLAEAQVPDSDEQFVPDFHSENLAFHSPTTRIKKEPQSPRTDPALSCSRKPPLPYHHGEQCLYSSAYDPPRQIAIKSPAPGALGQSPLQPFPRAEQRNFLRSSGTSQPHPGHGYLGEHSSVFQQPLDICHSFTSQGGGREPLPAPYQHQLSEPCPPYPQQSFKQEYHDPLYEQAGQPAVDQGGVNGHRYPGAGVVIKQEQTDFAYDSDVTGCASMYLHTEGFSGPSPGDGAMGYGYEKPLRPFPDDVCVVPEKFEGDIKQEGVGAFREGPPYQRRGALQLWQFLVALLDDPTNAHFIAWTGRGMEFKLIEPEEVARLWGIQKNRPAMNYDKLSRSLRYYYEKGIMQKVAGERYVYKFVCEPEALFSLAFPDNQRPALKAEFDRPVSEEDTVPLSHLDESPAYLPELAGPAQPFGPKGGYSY

A further assay deals with ETV1 (UniProt P50549).
Another assay addresses T4, ERF (UniProt P50548).
T4 sequence: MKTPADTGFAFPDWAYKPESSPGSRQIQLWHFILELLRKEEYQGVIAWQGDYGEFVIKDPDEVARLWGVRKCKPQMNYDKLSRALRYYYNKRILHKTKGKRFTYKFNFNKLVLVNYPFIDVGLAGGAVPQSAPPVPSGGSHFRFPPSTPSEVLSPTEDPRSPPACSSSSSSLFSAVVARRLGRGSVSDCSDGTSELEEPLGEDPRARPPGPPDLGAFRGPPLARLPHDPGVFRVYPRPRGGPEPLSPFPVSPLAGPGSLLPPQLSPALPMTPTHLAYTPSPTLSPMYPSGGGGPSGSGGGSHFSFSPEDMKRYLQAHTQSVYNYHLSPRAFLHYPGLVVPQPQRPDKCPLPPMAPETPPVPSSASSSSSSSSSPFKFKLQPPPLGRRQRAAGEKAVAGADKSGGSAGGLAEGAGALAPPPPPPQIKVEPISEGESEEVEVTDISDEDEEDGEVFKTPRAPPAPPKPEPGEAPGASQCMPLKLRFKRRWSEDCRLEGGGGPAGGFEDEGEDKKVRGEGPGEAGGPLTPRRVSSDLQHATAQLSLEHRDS

Take GGTCAT: the binding signal in the assay with ERG was found to be 0.902; with ELF1, 0.829; with ELK4 it was 0.915; with ETV4, 0.784; with ETV1, 0.857; with ERF, 0.884.
In the case of TGAGAA, the binding signal came to 0.747 with ERG; 0.744 with ELF1; 0.792 with ELK4; 0.643 with ETV4; 0.685 with ETV1; 0.628 in the assay with ERF.
GTGTCG: the binding signal in the assay with ERG was determined as 0.625; in the assay with ELF1, 0.622; in the assay with ELK4 it was 0.642; with ETV4 it was 0.571; with ETV1, 0.625; in the assay with ERF it was 0.571.
Take CGCAGT: the binding signal was determined as 0.711 in the assay with ERG; 0.737 with ELF1; 0.805 with ELK4; 0.787 with ETV4; 0.689 with ETV1; 0.698 in the assay with ERF.
Consider GGGATG, for which the binding signal in the assay with ERG was 0.875; in the assay with ELF1 it was 0.866; with ELK4, 0.938; in the assay with ETV4, 0.956; with ETV1 it was 0.92; with ERF, 0.983.
For the sequence AGACAT, the binding signal with ERG came out at 0.804; in the assay with ELF1, 0.826; with ELK4, 0.778; with ETV4 it was 0.831; in the assay with ETV1, 0.852; in the assay with ERF, 0.824.
As for GACCCT, the binding signal worked out at 0.839 in the assay with ERG; 0.888 with ELF1; 0.797 with ELK4; 0.896 with ETV4; 0.865 with ETV1; 1.05 with ERF.
As for CCAGCG, the binding signal in the assay with ERG was 0.658; with ELF1, 0.624; in the assay with ELK4 it was 0.727; in the assay with ETV4, 0.619; in the assay with ETV1 it was 0.612; with ERF, 0.622.
On to GCGGTC, for which the binding signal worked out at 0.649 with ERG; 0.68 in the assay with ELF1; 0.655 with ELK4; 0.73 with ETV4; 0.615 with ETV1; 0.642 in the assay with ERF.
For CAGGGA, the binding signal in the assay with ERG worked out at 0.517; in the assay with ELF1, 0.494; with ELK4 it was 0.449; in the assay with ETV4, 0.501; in the assay with ETV1, 0.499; with ERF, 0.52.
On to AGCCGG, for which the binding signal with ERG worked out at 0.63; with ELF1, 0.584; with ELK4 it was 0.565; with ETV4, 0.607; with ETV1 it was 0.627; with ERF, 0.538.
Consider GCATGT, for which the binding signal in the assay with ERG is 0.727; with ELF1 it was 0.775; with ELK4, 0.753; with ETV4, 0.809; in the assay with ETV1, 0.782; with ERF, 0.837.
For the sequence GTGATA, the binding signal with ERG stood at 0.658; with ELF1 it was 0.68; in the assay with ELK4, 0.711; with ETV4 it was 0.637; with ETV1 it was 0.622; in the assay with ERF, 0.656.
On to GGACCC, for which the binding signal in the assay with ERG was determined as 0.814; with ELF1 it was 0.864; with ELK4 it was 0.838; in the assay with ETV4, 0.917; with ETV1, 0.849; with ERF it was 0.821.
For GCCGGT, the binding signal in the assay with ERG came out at 0.627; in the assay with ELF1 it was 0.675; with ELK4 it was 0.653; with ETV4 it was 0.634; with ETV1, 0.69; with ERF it was 0.644.
Consider GGAGCG, for which the binding signal with ERG was found to be 0.385; with ELF1 it was 0.406; in the assay with ELK4 it was 0.355; with ETV4, 0.343; in the assay with ETV1, 0.391; with ERF, 0.406.
Take GTGCAG: the binding signal with ERG turned out to be 0.706; with ELF1 it was 0.71; with ELK4 it was 0.745; with ETV4, 0.704; with ETV1, 0.752; with ERF, 0.685.
Turning to GTTGGG, the binding signal in the assay with ERG was found to be 0.688; in the assay with ELF1, 0.741; with ELK4, 0.662; with ETV4, 0.738; with ETV1, 0.716; in the assay with ERF it was 0.738.
On to GCTGAG, for which the binding signal came to 0.663 with ERG; 0.629 with ELF1; 0.756 in the assay with ELK4; 0.615 with ETV4; 0.744 with ETV1; 0.612 in the assay with ERF.
Regarding CGCAGC, the binding signal is 0.765 in the assay with ERG; 0.83 with ELF1; 0.773 with ELK4; 0.76 with ETV4; 0.79 with ETV1; 0.821 with ERF.
GATCGC: the binding signal with ERG is 0.868; in the assay with ELF1, 0.849; with ELK4 it was 0.878; in the assay with ETV4, 0.866; with ETV1, 0.812; with ERF it was 0.902.
On to GGGACT, for which the binding signal with ERG was found to be 0.692; with ELF1, 0.673; with ELK4 it was 0.645; with ETV4 it was 0.709; in the assay with ETV1, 0.686; with ERF it was 0.651.
Turning to CCAGGC, the binding signal with ERG is 0.466; in the assay with ELF1, 0.413; in the assay with ELK4, 0.413; with ETV4, 0.426; with ETV1, 0.462; in the assay with ERF, 0.431.
On to CAGGTC, for which the binding signal with ERG is 0.693; with ELF1 it was 0.657; with ELK4, 0.775; with ETV4, 0.693; with ETV1, 0.746; in the assay with ERF, 0.696.
Consider GCGGGG, for which the binding signal with ERG amounted to 0.485; with ELF1 it was 0.467; with ELK4, 0.486; with ETV4 it was 0.467; in the assay with ETV1, 0.519; with ERF, 0.435.
As for GCGGCG, the binding signal with ERG amounted to 0.81; with ELF1, 0.773; in the assay with ELK4, 0.751; with ETV4, 0.822; with ETV1 it was 0.768; with ERF, 0.68.
For the sequence GACCGT, the binding signal stood at 0.461 in the assay with ERG; 0.477 with ELF1; 0.464 with ELK4; 0.423 in the assay with ETV4; 0.459 with ETV1; 0.43 with ERF.
Take GGGCAA: the binding signal is 0.893 in the assay with ERG; 0.873 with ELF1; 0.892 with ELK4; 0.903 with ETV4; 0.864 with ETV1; 0.979 with ERF.
On to GTCCAG, for which the binding signal with ERG worked out at 0.676; in the assay with ELF1 it was 0.604; with ELK4, 0.627; in the assay with ETV4 it was 0.63; with ETV1 it was 0.621; with ERF it was 0.576.
Take GTCAGG: the binding signal was found to be 0.524 with ERG; 0.504 in the assay with ELF1; 0.489 with ELK4; 0.52 with ETV4; 0.542 with ETV1; 0.474 with ERF.
